# Some of these results come from one statement about several compounds together.
# Assay: Glutathione stability experiments (UV-visible spectra)
# Assay type: physicochemical
# Details: 5.0×10^−5 M complex, one mole equivalent GSH, phosphate buffer pH 7.4, 15 hours
# Protocol: 5.0×10^−3 M stock solutions of compounds 10-18 were prepared in acetonitrile or DMSO, and subsequently diluted in phosphate buffer (0.10M, pH 7.4) to yield a final gold complex concentration of 5.0×10^−5 M. A stock solution of reduced glutathione in phosphate buffer (0.10M, pH 7.4) was used to add one mole equivalent of GSH to the final gold complex solution, and UV-visible spectra of compounds 10-18 were subsequently collected every hour over a 15 hour period.
substance,measurement,setting,value
"(2-mono-sec-butyl-2,2′-bipyridine)AuCl3 [Compound 18]",redox stability in the presence of GSH,,nearly identical stability profiles as compound 10
same,redox stability in the presence of GSH,listed as compound 18,formation of colloidal gold(0) was not observed
